Assay results reported in the supplement of paper PMC8728848.
This is one part of the list.

Columns and labels:
Assay in all cases: glycan array binding signal (z-score within array); higher = stronger binding
Settings in all cases: glycan notation: IUPAC condensed, linker removed
[1] = target: Neu5Ac(a2-6)GalNAc
How it was run: (§1)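 The Consortium for Functional Glycomics database supplied 3228 glycan arrays, of which those lacking an available protein sequence were dropped. The binding signal, a within-array Z-score, was averaged across arrays of the same protein sequence and across linkers. Negative scores can be read as non-binding.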

[2] = target: Neu5Ac(a2-6)GalNAc(b1-4)GlcNAc
How it was run: as §1

[3] = target: Neu5Ac(a2-6)GalNAc(b1-4)GlcNAc6S
How it was run: as §1

[4] = target: Neu5Ac(a2-6)GlcNAc(b1-4)GlcNAc
How it was run: as §1

[5] = target: Neu5Ac(a2-6)GlcNAc(b1-4)GlcNAc(b1-4)GlcNAc
How it was run: as §1

[6] = target: Neu5Ac(a2-8)Neu5Ac
How it was run: as §1

[7] = target: Neu5Ac(a2-8)Neu5Ac(a2-3)Gal(b1-3)GalNAc(b1-4)[Neu5Ac(a2-3)]Gal(b1-4)Glc
How it was run: as §1

[8] = target: Neu5Ac(a2-8)Neu5Ac(a2-3)Gal(b1-3)GalNAc(b1-4)[Neu5Ac(a2-8)Neu5Ac(a2-3)]Gal(b1-4)Glc
How it was run: as §1

[9] = target: Neu5Ac(a2-8)Neu5Ac(a2-3)Gal(b1-4)Glc
How it was run: as §1

[10] = target: Neu5Ac(a2-8)Neu5Ac(a2-3)Gal(b1-4)GlcNAc
How it was run: as §1

[11] = target: Neu5Ac(a2-8)Neu5Ac(a2-3)[Gal(b1-3)GalNAc(b1-4)]Gal(b1-4)Glc
How it was run: as §1

[12] = target: Neu5Ac(a2-8)Neu5Ac(a2-3)[GalNAc(b1-4)]Gal(b1-4)Glc
How it was run: as §1

[13] = target: Neu5Ac(a2-8)Neu5Ac(a2-8)Neu5Ac
How it was run: as §1

[14] = target: Neu5Ac(a2-8)Neu5Ac(a2-8)Neu5Ac(a2-3)Gal(b1-4)Glc
How it was run: as §1

[15] = target: Neu5Ac(a2-8)Neu5Ac(a2-8)Neu5Ac(a2-3)[Gal(b1-3)GalNAc(b1-4)]Gal(b1-4)Glc
How it was run: as §1

[16] = target: Neu5Ac(a2-8)Neu5Ac(a2-8)Neu5Ac(a2-3)[GalNAc(b1-4)]Gal(b1-4)Glc
How it was run: as §1

[17] = target: Neu5Ac(a2-8)Neu5Ac(a2-8)Neu5Ac(a2-8)Neu5Ac(a2-3)[GalNAc(b1-4)]Gal(b1-4)Glc
How it was run: as §1

[18] = target: Neu5Ac(a2-8)Neu5Gc(a2-3)Gal(b1-4)GlcNAc
How it was run: as §1

[19] = target: Neu5Ac(b2-6)Gal(b1-4)GlcNAc
How it was run: as §1

[20] = target: Neu5Ac(b2-6)GalNAc
How it was run: as §1

[21] = target: Neu5Ac9Ac(a2-3)Gal(b1-3)GlcNAc
How it was run: as §1

[22] = target: Neu5Ac9Ac(a2-3)Gal(b1-4)GlcNAc
How it was run: as §1

[23] = target: Neu5Ac9Ac(a2-6)Gal(b1-4)GlcNAc
How it was run: as §1

[24] = target: Neu5Gc(a2-3)Gal(b1-3)GlcNAc
How it was run: as §1

[25] = target: Neu5Gc(a2-3)Gal(b1-3)[Fuc(a1-4)]GlcNAc
How it was run: as §1

[26] = target: Neu5Gc(a2-3)Gal(b1-4)Glc
How it was run: as §1

[27] = target: Neu5Gc(a2-3)Gal(b1-4)GlcNAc
How it was run: as §1

[28] = target: Neu5Gc(a2-3)Gal(b1-4)GlcNAc(b1-3)Gal(b1-4)GlcNAc(b1-2)Man(a1-3)[Neu5Gc(a2-3)Gal(b1-4)GlcNAc(b1-3)Gal(b1-4)GlcNAc(b1-2)Man(a1-6)]Man(b1-4)GlcNAc(b1-4)GlcNAc
How it was run: as §1

[29] = target: Neu5Gc(a2-3)Gal(b1-4)[Fuc(a1-3)]GlcNAc
How it was run: as §1

[30] = target: Neu5Gc(a2-6)Gal(b1-4)GlcNAc
How it was run: as §1

[31] = target: Neu5Gc(a2-6)GalNAc
How it was run: as §1

[32] = target: Neu5Gc(a2-8)Neu5Ac(a2-3)Gal(b1-4)GlcNAc
How it was run: as §1

[33] = target: Neu5Gc(a2-8)Neu5Gc(a2-3)Gal(b1-4)GlcNAc
How it was run: as §1

[34] = target: Neu5Gc(a2-8)Neu5Gc(a2-3)Gal(b1-4)GlcNAc(b1-3)Gal(b1-4)GlcNAc
How it was run: as §1

[35] = target: Neu5Gc(a2-8)Neu5Gc(a2-6)Gal(b1-4)GlcNAc
How it was run: as §1

[36] = target: Neu5Gc(b2-6)Gal(b1-4)GlcNAc
How it was run: as §1

B1: Flo1 (Saccharomyces cerevisiae), P32768 (protein)
chain: SGATEACLPAGQRKSGMNINFYQYSLKDSSTYSNAAYMAYGYASKTKLGSVGGQTDISIDYNIPCVSSSGTFPCPQEDSYGNWGCKGMGACSNSQGIAYWSTDLFGFYTTPTNVTLEMTGYFLPPQTGSYTFKFATVDDSAILSVGGATAFNCCAQQQPPITSTNFTIDGIKPWGGSLPPNIEGTVYMYAGYYYPMKVVYSNAVSWGTLPISVTLPDGTTVSDDFEGYVYSFDDDLSQSNCTVPDPSNY
glycan array binding signal (z-score) [1]: -0.139 | glycan array binding signal (z-score) [2]: -0.312 | glycan array binding signal (z-score) [3]: -0.376 | glycan array binding signal (z-score) [4]: -0.394 | glycan array binding signal (z-score) [5]: -0.079 | glycan array binding signal (z-score) [6]: -0.34 | glycan array binding signal (z-score) [7]: 1.62 | glycan array binding signal (z-score) [8]: -0.152 | glycan array binding signal (z-score) [9]: -0.541 | glycan array binding signal (z-score) [10]: -0.603 | glycan array binding signal (z-score) [11]: 0.328 | glycan array binding signal (z-score) [12]: -0.046 | glycan array binding signal (z-score) [13]: -0.27 | glycan array binding signal (z-score) [14]: -0.271 | glycan array binding signal (z-score) [15]: -0.551 | glycan array binding signal (z-score) [16]: -0.419 | glycan array binding signal (z-score) [17]: 0.047 | glycan array binding signal (z-score) [18]: -0.252 | glycan array binding signal (z-score) [19]: -0.394 | glycan array binding signal (z-score) [20]: -0.283 | glycan array binding signal (z-score) [21]: -0.754 | glycan array binding signal (z-score) [22]: -0.483 | glycan array binding signal (z-score) [23]: -0.52 | glycan array binding signal (z-score) [24]: -0.129 | glycan array binding signal (z-score) [25]: -0.569 | glycan array binding signal (z-score) [26]: 1.18 | glycan array binding signal (z-score) [27]: -0.264 | glycan array binding signal (z-score) [28]: -0.814 | glycan array binding signal (z-score) [29]: -0.021 | glycan array binding signal (z-score) [30]: -0.199 | glycan array binding signal (z-score) [31]: -0.148 | glycan array binding signal (z-score) [32]: 0.52 | glycan array binding signal (z-score) [33]: 0.147 | glycan array binding signal (z-score) [34]: -0.661 | glycan array binding signal (z-score) [35]: 0.534 | glycan array binding signal (z-score) [36]: 1.14
